# Test results from PubChem BioAssay (NCATS).
# By UniProt entry, the sequences of proteins in these tests, tags left out. Where a name states a change or a piece, a line headed by the entry shows the natural chain unless it says otherwise.
# UniProt Q8WZA2: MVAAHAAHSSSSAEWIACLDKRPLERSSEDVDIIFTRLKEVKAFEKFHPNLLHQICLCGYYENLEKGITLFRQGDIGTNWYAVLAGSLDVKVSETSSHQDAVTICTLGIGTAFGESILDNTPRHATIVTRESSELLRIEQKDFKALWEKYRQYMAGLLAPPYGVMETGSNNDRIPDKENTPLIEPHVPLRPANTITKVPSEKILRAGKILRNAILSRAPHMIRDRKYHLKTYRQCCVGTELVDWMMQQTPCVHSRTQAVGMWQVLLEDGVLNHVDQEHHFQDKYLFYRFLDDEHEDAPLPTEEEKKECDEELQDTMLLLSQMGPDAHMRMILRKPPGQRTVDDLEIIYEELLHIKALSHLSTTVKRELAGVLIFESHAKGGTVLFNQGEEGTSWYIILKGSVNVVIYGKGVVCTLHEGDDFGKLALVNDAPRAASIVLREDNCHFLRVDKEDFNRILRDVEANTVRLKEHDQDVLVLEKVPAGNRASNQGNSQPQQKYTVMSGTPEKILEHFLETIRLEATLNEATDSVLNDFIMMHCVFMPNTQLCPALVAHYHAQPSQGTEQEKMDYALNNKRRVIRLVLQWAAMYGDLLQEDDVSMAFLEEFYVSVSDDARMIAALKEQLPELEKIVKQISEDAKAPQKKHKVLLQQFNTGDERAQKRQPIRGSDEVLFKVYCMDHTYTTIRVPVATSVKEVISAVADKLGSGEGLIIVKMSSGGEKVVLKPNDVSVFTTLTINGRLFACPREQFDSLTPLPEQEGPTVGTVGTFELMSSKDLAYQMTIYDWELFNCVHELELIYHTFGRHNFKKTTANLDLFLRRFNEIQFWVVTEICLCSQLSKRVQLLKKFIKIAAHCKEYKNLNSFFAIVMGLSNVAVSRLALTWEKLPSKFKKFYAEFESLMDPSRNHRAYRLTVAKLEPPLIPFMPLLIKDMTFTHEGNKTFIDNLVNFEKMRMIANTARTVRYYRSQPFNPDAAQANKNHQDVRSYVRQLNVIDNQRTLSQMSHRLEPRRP
# Inconclusive means that the source gave no clear call. Such entries were picked first, then a sample of the others. Where the call is inconclusive, the potency comes from a doubtful curve fit. The source made the active and inactive calls. Calls follow the shape of the dose curve; as a rule, active = well fitted activation curve with a large enough effect; inconclusive = small, poorly fitted or top-dose-only effect; inactive = no such curve, though single readings can be large or run the other way.
# Target: Rap guanine nucleotide exchange factor 4 (Homo sapiens) (UniProt Q8WZA2)
# Test: Confirmatory qHTS for agonist of cAMP-regulated guanine nucleotide exchange factor 4 (EPAC2) (AID 1645884);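 also: nucleotide exchange releases bodipy-GDP from Rap1 and this lowers its fluorescence; nearly all actives have a fitted effect of over 65% in size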
# Conditions: EPAC2 GEF activity, Rap1B-BODIPY-GDP fluorescence; activation: at 154 µM (top of the series), percent relative to cAMP agonist control
# % is scaled to controls: 0 for no effect and ±100 for the full control effect; potency is read from the fitted curve at half-maximal effect.
Structure (SMILES),Potency,activation
COCCn1c(=O)c(-c2cc(F)cc(F)c2)nc2cnc(Nc3cccc(OC)c3)nc21,"inconclusive: 126 µM [activator, single point]",
O=C(CSc1nc2ccccc2n1CCc1ccccc1)c1ccc(O)c(O)c1,"inconclusive: 89.1 µM [activator, partial curve, poor fit]",
Cc1ccc(Cl)cc1NC(=O)Nc1cn(CC(C)C)c(=O)c2ccccc12,,"inactive: 0% [at 83.8 µM, percent relative to cAMP agonist control]"
COc1cccc(Cn2c(=O)c(-c3ccc(Cl)cc3)nc3cnc(N4CCNCC4)nc32)c1,"inconclusive: 35.4 µM [activator, full curve]",
COCCn1c(=O)c(-c2cccs2)nc2cnc(Nc3ccccc3)nc21,"inconclusive: 39.7 µM [activator, full curve, poor fit]",
COc1cc2c(cc1OC)C1C(=O)c3ccc4c(c3OC1CO2)C=CC(C)(C)O4 (stereo not drawn),,inactive: 12.4%
CCN(CC)CCOC(=O)c1ccc(NC(=O)c2nn(-c3ccc(C)cc3)c(=O)c3c2c2ccccc2n3C)cc1,"inconclusive: 28.2 µM [activator, single point]",
Cc1cccn2c(=O)cc(CSc3nnc(NC(=O)COc4ccccc4)s3)nc12,"inconclusive: 50.1 µM [activator, single point]",
